{"source": "PubChem BioAssay AID720505 (Drosophila RNAi Screening Center, 2013)", "assay": "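Fly regulators or components of the CRAC channel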 (primary screen)", "system": "Drosophila S2R+ cells", "reagents": "long dsRNA against Drosophila genes", "challenge": "thapsigargin (2 µM) in calcium-free buffer to empty internal stores, then 2 mM calcium added back", "detection": "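Fluo-4 signal in 384-well plates read on a FLIPR after thapsigargin (2 µM, calcium-free) store depletion and 2 mM calcium add-back; unnormalised mean endpoint per well; screen run twice, selected wells retested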", "reading the numbers": "calcium signal: higher = more calcium entry after store depletion", "call rule": "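Knock-downs counted as hits when calcium entry dropped relative to STIM1 positive and Rho1 negative controls present on each plate; roughly 1500 genes called, with reductions of differing size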", "meaning of the calls": "active = called as lowering calcium entry; inactive = not called", "note": "The deposit covers about 20,000 reagents; shown is an unselected part of those that have a named target and a result. In the full data, about 2,100 (10%) are marked active. 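Raw plate signals without normalisation; calls rest on control-based scores that were not deposited; replicate 2 separates called from uncalled poorly.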 Names joined by + are all predicted targets of the reagent. The record does not give: the amount of reagent, the time to read-out."}
{"target": "tipE (temperature-induced paralytic E)", "DRSC id": "DRSC08738", "calcium signal, replicate 1": 144, "calcium signal, replicate 2": 83.4, "call": "inactive"}
{"target": "Lpt (Lost PHDs of trr)", "DRSC id": "DRSC04291", "calcium signal, replicate 1": 153, "calcium signal, replicate 2": 207, "call": "inactive"}
{"target": "Lpt (Lost PHDs of trr)", "DRSC id": "DRSC04515", "calcium signal, replicate 1": 141, "calcium signal, replicate 2": 92.1, "call": "inactive"}
{"target": "ct (cut)", "DRSC id": "DRSC18757", "calcium signal, replicate 1": 66.8, "calcium signal, replicate 2": 226, "call": "active"}
{"target": "CG9150", "DRSC id": "DRSC03148", "calcium signal, replicate 1": 143, "calcium signal, replicate 2": 106, "call": "inactive"}
{"target": "CG31404", "DRSC id": "DRSC15497", "calcium signal, replicate 1": 169, "calcium signal, replicate 2": 188, "call": "inactive"}
{"target": "CG14644", "DRSC id": "DRSC12230", "calcium signal, replicate 1": 102, "calcium signal, replicate 2": 147, "call": "inactive"}
{"target": "Or85a (Odorant receptor 85a)", "DRSC id": "DRSC16764", "calcium signal, replicate 1": 124, "calcium signal, replicate 2": 107, "call": "inactive"}
{"target": "p-cup (presidents-cup)", "DRSC id": "DRSC19513", "calcium signal, replicate 1": 98.8, "calcium signal, replicate 2": 80.3, "call": "inactive"}
{"target": "Cad88C (Cadherin 88C)", "DRSC id": "DRSC15486", "calcium signal, replicate 1": 158, "calcium signal, replicate 2": 222, "call": "inactive"}

2 entries from above, showing only “calcium signal, replicate 1”.
ct (cut) [DRSC18757] = 66.8
CG9150 [DRSC03148] = 143

The list goes on:
{"target": "sing + Axs", "DRSC id": "DRSC19333", "calcium signal, replicate 1": 102, "calcium signal, replicate 2": 113, "call": "inactive"}
{"target": "CG44153", "DRSC id": "DRSC01118", "calcium signal, replicate 1": 141, "calcium signal, replicate 2": 84.5, "call": "inactive"}
{"target": "CG44153", "DRSC id": "DRSC02228", "calcium signal, replicate 1": 86.5, "calcium signal, replicate 2": 139, "call": "inactive"}
{"target": "CG44153", "DRSC id": "DRSC02229", "calcium signal, replicate 1": 92.1, "calcium signal, replicate 2": 108, "call": "inactive"}
{"target": "CG44153", "DRSC id": "DRSC02231", "calcium signal, replicate 1": 137, "calcium signal, replicate 2": 140, "call": "inactive"}
{"target": "CG44153", "DRSC id": "DRSC02233", "calcium signal, replicate 1": 118, "calcium signal, replicate 2": 129, "call": "inactive"}
{"target": "CG44153", "DRSC id": "DRSC02902", "calcium signal, replicate 1": 109, "calcium signal, replicate 2": 97.5, "call": "inactive"}
{"target": "CG44153", "DRSC id": "DRSC02903", "calcium signal, replicate 1": 81, "calcium signal, replicate 2": 100, "call": "inactive"}
